{"source": "PubChem BioAssay AID1259254 (NCATS, 2017)", "purpose": "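Genome-wide screen for genes that prevent DNA re-replication in cancer cells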 (primary screen)", "cell system": "human HCT116 colorectal cancer cells", "reagent": "single siRNA against human genes", "duration": "3 days", "measured": "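Imaged Hoechst DNA stain sorts each cell into a cycle phase by DNA amount; per plate, G2 fraction set to 0% for non-targeting and 100% for GMNN siRNA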", "direction": "G2 robust z-score: higher = more G2 cells, more excess DNA replication", "rule for the call": "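Active siRNAs have a G2 robust z of 5 or more median absolute deviations over the median, which in these data means about 38% or higher of GMNN control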", "note": "In all, the deposit lists about 59,000 reagents; this is a part drawn at random. In the full data, about 1,550 (2.6%) were called active. 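G2 share is only a proxy for re-replication; each gene was hit by three separate siRNAs, and active genes were retested.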 Reagents against one gene are numbered here. Not all columns of the deposit are shown. Not stated in the record: the amount of reagent."}
{"gene":"CIST1","reagent no.":1,"G2 robust z-score":0.556,"activity call":"inactive"}
{"gene":"CIST1","reagent no.":2,"G2 robust z-score":0.0567,"activity call":"inactive"}
{"gene":"CIST1","reagent no.":3,"G2 robust z-score":2.04,"activity call":"inactive"}
{"gene":"GDI1","reagent no.":1,"G2 robust z-score":5.31,"activity call":"active"}
{"gene":"GDI1","reagent no.":2,"G2 robust z-score":9.89,"activity call":"active"}
{"gene":"GDI1","reagent no.":3,"G2 robust z-score":-0.153,"activity call":"inactive"}
{"gene":"SZRD1","reagent no.":1,"G2 robust z-score":0.853,"activity call":"inactive"}
{"gene":"SZRD1","reagent no.":2,"G2 robust z-score":-0.405,"activity call":"inactive"}
{"gene":"SZRD1","reagent no.":3,"G2 robust z-score":0.348,"activity call":"inactive"}
{"gene":"KCNK12","reagent no.":1,"G2 robust z-score":1.99,"activity call":"inactive"}
{"gene":"KCNK12","reagent no.":2,"G2 robust z-score":0.331,"activity call":"inactive"}
{"gene":"KCNK12","reagent no.":3,"G2 robust z-score":-0.976,"activity call":"inactive"}
{"gene":"KCNK10","reagent no.":1,"G2 robust z-score":0.625,"activity call":"inactive"}
{"gene":"KCNK10","reagent no.":2,"G2 robust z-score":-0.665,"activity call":"inactive"}
{"gene":"KCNK10","reagent no.":3,"G2 robust z-score":-0.279,"activity call":"inactive"}
{"gene":"SNW1","reagent no.":1,"G2 robust z-score":1.4,"activity call":"inactive"}
{"gene":"SNW1","reagent no.":2,"G2 robust z-score":2.04,"activity call":"inactive"}
{"gene":"SNW1","reagent no.":3,"G2 robust z-score":-0.0947,"activity call":"inactive"}
{"gene":"PRKCZ","reagent no.":1,"G2 robust z-score":0.286,"activity call":"inactive"}
{"gene":"PRKCZ","reagent no.":2,"G2 robust z-score":-1.62,"activity call":"inactive"}
{"gene":"PRKCZ","reagent no.":3,"G2 robust z-score":-0.37,"activity call":"inactive"}
{"gene":"SPOCK1","reagent no.":1,"G2 robust z-score":3.74,"activity call":"inactive"}
{"gene":"SPOCK1","reagent no.":2,"G2 robust z-score":0.941,"activity call":"inactive"}
{"gene":"SPOCK1","reagent no.":3,"G2 robust z-score":-0.842,"activity call":"inactive"}
{"gene":"ZNF689","reagent no.":1,"G2 robust z-score":0.364,"activity call":"inactive"}
{"gene":"ZNF689","reagent no.":2,"G2 robust z-score":3.47,"activity call":"inactive"}
{"gene":"ZNF689","reagent no.":3,"G2 robust z-score":1.69,"activity call":"inactive"}
{"gene":"CORO6","reagent no.":1,"G2 robust z-score":-0.915,"activity call":"inactive"}
{"gene":"CORO6","reagent no.":2,"G2 robust z-score":1.63,"activity call":"inactive"}
{"gene":"CORO6","reagent no.":3,"G2 robust z-score":0.62,"activity call":"inactive"}

Reagents listed above with an active call (2):
{"gene":"GDI1","reagent no.":1,"G2 robust z-score":5.31,"activity call":"active"}
{"gene":"GDI1","reagent no.":2,"G2 robust z-score":9.89,"activity call":"active"}
